PubChem BioAssay AID493246, Drosophila RNAi Screening Center – 2011

- Screen: 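Identify essential fly genes by loss of cell viability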 (primary screen)
- Cells: Drosophila Kc and S2R+ cells
- Reagent: long dsRNA against Drosophila genes
- Detection: 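Raw, unnormalised count of remaining cells in each well; per-plate z-scores of cell number underlie the calls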
- Reading the numbers: Kc cell number and S2R+ cell number: higher = more cells remaining
- Call rule: 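Active when the per-plate z-score of cell number is 3 or more in the direction of fewer cells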
In all, the deposit lists about 21,000 reagents; this is an unselected part of those that have a named target and a result. Over the whole deposit, 429 (2%) are marked active. 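Values are raw and not normalised between plates; calls rest on per-plate z-scores that were not deposited.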 A number with no mark means an inactive call. Names joined by + are all predicted targets of the reagent. The record does not give: the amount of reagent, the time to read-out.

| gene | DRSC id | Kc cell number, rep 1 | Kc cell number, rep 2 | S2R+ cell number, rep 1 | S2R+ cell number, rep 2 |
| --- | --- | --- | --- | --- | --- |
| CG8329 (GeneID 39123) | DRSC10978 | 1.50e6 | 1.52e6 | 1.40e6 | 1.39e6 |
| Gr64c (GeneID 117479) | DRSC08445 | 1.64e6 | 1.20e6 | 1.09e6 | 1.27e6 |
| CG31125 (GeneID 318599) | DRSC13684 | 1.35e6 | 1.64e6 | 1.06e6 | 8.41e5 |
| ND-20L (GeneID 43477) | DRSC15414 | 1.59e6 | 1.62e6 | 1.01e6 | 1.14e6 |
| CG31793 (GeneID 326161) | DRSC02605 | 1.51e6 | 1.62e6 | 1.34e6 | 3.92e5 |
| Ugt316A1 (GeneID 40079) | DRSC10376 | 1.46e6 | 1.67e6 | 1.25e6 | 1.33e6 |
| CG4707 (GeneID 37935) | DRSC04483 | 1.44e6 | 1.53e6 | 1.21e6 | 1.29e6 |
| Ctu1 (GeneID 35920) | DRSC07069 | 1.59e6 | 1.57e6 | 1.35e6 | 1.44e6 |
| zen (GeneID 40828) | DRSC12632 | 1.32e6 | 1.36e6 | 1.26e6 | 1.35e6 |
| CG6961 + CG18259 | DRSC19799 | 1.48e6 | 1.47e6 | 1.05e6 | 1.13e6 |
| CG6961 + CG18259 | DRSC20019 | 1.63e6 | 1.69e6 | 1.08e6 | 1.19e6 |
| PIG-Wa (GeneID 33425) | DRSC00728 | 1.58e6 | 1.61e6 | 1.12e6 | 1.23e6 |
| CG9003 (GeneID 36244) | DRSC07317 | 1.52e6 | 1.51e6 | 1.18e6 | 1.34e6 |
| fdl (GeneID 250735) | DRSC07279 | 1.59e6 | 1.59e6 | 1.19e6 | 1.39e6 |
| Krn (GeneID 326198) | DRSC11202 | 1.28e6 | 1.31e6 | 1.18e6 | 1.21e6 |
| CG15279 (GeneID 34863) | DRSC01935 | 1.36e6 | 1.53e6 | 1.38e6 | 1.22e6 |
| Fer3 (GeneID 41411) | DRSC16133 | 1.55e6 | 1.67e6 | 1.35e6 | 1.37e6 |
| Cad96Ca (GeneID 43026) | DRSC14220 | 1.51e6 | 1.43e6 | 9.57e5 | 1.07e6 |
| Cad96Ca (GeneID 43026) | DRSC16693 | 1.48e6 | 1.43e6 | 1.01e6 | 1.07e6 |
| CG4763 (GeneID 37771) | DRSC04009 | 1.51e6 | 1.70e6 | 8.95e5 | 1.05e6 |
| CG4763 (GeneID 37771) | DRSC04487 | 1.79e6 | 1.92e6 | 1.29e6 | 1.31e6 |
| CG30413 (GeneID 246601) | DRSC04001 | 1.42e6 | 1.50e6 | 9.49e5 | 1.07e6 |
| Ncc69 (GeneID 39410) | DRSC10412 | 1.50e6 | 1.53e6 | 1.31e6 | 1.29e6 |
| Ncc69 (GeneID 39410) | DRSC10413 | 1.91e6 | 2.09e6 | 1.31e6 | 1.42e6 |
| CG18542 + CG32939 | DRSC15342 | 1.50e6 | 1.57e6 | 1.26e6 | 1.35e6 |
| bw (GeneID 37724) | DRSC04005 | 1.44e6 | 1.52e6 | 9.55e5 | 1.07e6 |
| bw (GeneID 37724) | DRSC04677 | 1.36e6 | 1.43e6 | 1.17e6 | 1.28e6 |
| inaF-B (GeneID 8674114) | DRSC18903 | 1.23e6 | 1.46e6 | 1.06e6 | 1.05e6 |
| Nnp-1 (GeneID 44391) | DRSC02165 | 1.59e6 | 1.80e6 | 1.20e6 | 1.40e6 |
| jdp (GeneID 43630) | DRSC16975 | 6.03e5 | – | 8.80e5 | – |
| luna (GeneID 2768719) | DRSC05253 | 1.52e6 | 1.48e6 | 1.01e6 | 1.11e6 |
| luna (GeneID 2768719) | DRSC06663 | 8.39e5 (active) | 8.77e5 | 5.60e5 | 6.72e5 |
| luna (GeneID 2768719) | DRSC07336 | 1.47e6 | 1.45e6 | 1.05e6 | 1.21e6 |
| CG2909 (GeneID 31958) | DRSC18241 | 1.74e6 | 1.58e6 | 1.11e6 | 1.26e6 |
| CG32388 (GeneID 192611) | DRSC08861 | 1.42e6 | 1.61e6 | 1.16e6 | 1.31e6 |
| ACXE (GeneID 53426) | DRSC00847 | 1.52e6 | 1.55e6 | 1.31e6 | 1.41e6 |
| CG11249 (GeneID 40409) | DRSC11645 | 1.32e6 | 1.34e6 | 1.31e6 | 1.36e6 |
| CG34444 (GeneID 5740745) | DRSC06435 | 1.48e6 | 1.57e6 | 1.27e6 | 1.39e6 |
| Usp30 (GeneID 31519) | DRSC18265 | 1.78e6 | 1.76e6 | 1.07e6 | 1.24e6 |
| CG7483 (GeneID 40987) | DRSC16249 | 1.62e6 | 1.79e6 | 1.23e6 | 1.31e6 |
| RpL39 (GeneID 37849) | DRSC04651 | 9.67e5 (active) | 1.15e6 | 7.91e5 | 9.78e5 |
| CG31709 (GeneID 261620) | DRSC01081 | 1.49e6 | 1.49e6 | 9.97e5 | 1.11e6 |
| CG11893 (GeneID 43056) | DRSC14429 | 1.48e6 | 1.60e6 | 1.09e6 | 1.17e6 |
| RyR (GeneID 49090) | DRSC07543 | 1.51e6 | 1.51e6 | 1.22e6 | 1.32e6 |
| CG2201 (GeneID 35417) | DRSC03721 | 1.25e6 | 1.33e6 | 1.08e6 | 1.14e6 |

Records above called active:
| gene | DRSC id | Kc cell number, rep 1 | Kc cell number, rep 2 | S2R+ cell number, rep 1 | S2R+ cell number, rep 2 |
| --- | --- | --- | --- | --- | --- |
| luna (GeneID 2768719) | DRSC06663 | 8.39e5 (active) | 8.77e5 | 5.60e5 | 6.72e5 |
| RpL39 (GeneID 37849) | DRSC04651 | 9.67e5 (active) | 1.15e6 | 7.91e5 | 9.78e5 |

Additional entries follow.
| gene | DRSC id | Kc cell number, rep 1 | Kc cell number, rep 2 | S2R+ cell number, rep 1 | S2R+ cell number, rep 2 |
| --- | --- | --- | --- | --- | --- |
| mtSSB (GeneID 41968) | DRSC17005 | 1.17e6 | 1.20e6 | 1.16e6 | 1.31e6 |
| Smvt (GeneID 43744) | DRSC15426 | 1.65e6 | 1.71e6 | 1.04e6 | 1.10e6 |
| CG34267 (GeneID 5740365) | DRSC07881 | 1.47e6 | 1.40e6 | 1.02e6 | 1.17e6 |
| glo (GeneID 41431) | DRSC16145 | 1.55e6 | 1.63e6 | 1.25e6 | 1.33e6 |
| beat-Vc (GeneID 41575) | DRSC12927 | 1.43e6 | 1.85e6 | 1.07e6 | 1.19e6 |
| beat-Vc (GeneID 41575) | DRSC14849 | 1.93e6 | 1.96e6 | 1.31e6 | 1.41e6 |
| Xrcc2 (GeneID 32837) | DRSC19984 | 1.62e6 | 1.59e6 | 1.13e6 | 1.30e6 |
| porin (GeneID 34500) | DRSC03594 | 1.33e6 | 1.43e6 | 1.09e6 | 1.12e6 |
| CG14089 (GeneID 40101) | DRSC10093 | 1.35e6 | 1.48e6 | 1.24e6 | 1.27e6 |
| scrt (GeneID 38469) | DRSC08736 | 1.25e6 (active) | 1.27e6 | 4.55e5 | 5.62e5 |
| ncd (GeneID 43517) | DRSC17012 | 5.11e5 | – | 7.11e5 | – |
| Zip99C (GeneID 43533) | DRSC16320 | 5.44e5 | – | 8.73e5 | – |
| ReepB (GeneID 36569) | DRSC07150 | 1.53e6 | 1.56e6 | 1.21e6 | 1.21e6 |
| Ir93a (GeneID 42471) | DRSC15212 | 1.89e6 | 1.84e6 | 1.39e6 | 1.41e6 |
| Ir93a (GeneID 42471) | DRSC15213 | 1.24e6 | 1.20e6 | 1.06e6 | 1.15e6 |
| CG13065 (GeneID 39786) | DRSC09948 | 1.42e6 | 1.58e6 | 1.25e6 | 1.36e6 |
| mthl10 (GeneID 38057) | DRSC08504 | 1.42e6 | 1.35e6 | 1.13e6 | 1.33e6 |
| mthl10 (GeneID 38057) | DRSC08505 | 1.66e6 | 1.48e6 | 1.04e6 | 1.39e6 |
| CG7333 (GeneID 42334) | DRSC16229 | 1.34e6 | 1.52e6 | 1.01e6 | 9.73e5 |
| CG12355 (GeneID 2768954) | DRSC09883 | 1.38e6 | 1.56e6 | 1.26e6 | 1.33e6 |
| CG2310 (GeneID 43473) | DRSC15438 | 1.62e6 | 1.73e6 | 1.05e6 | 1.12e6 |
| CG18420 (GeneID 2768924) | DRSC01954 | 1.42e6 | 1.51e6 | 1.24e6 | 1.39e6 |
| Cyp28d1 (GeneID 33749) | DRSC03298 | 1.37e6 | 1.40e6 | 6.56e5 | 8.22e5 |
| dtn (GeneID 31555) | DRSC17939 | 1.52e6 | 1.59e6 | 1.16e6 | 1.30e6 |
| CG17298 (GeneID 42529) | DRSC15221 | 1.47e6 | 1.41e6 | 1.07e6 | 1.20e6 |
| CG12290 (GeneID 43182) | DRSC14497 | 4.99e5 | – | 7.75e5 | – |
| Targ1 (GeneID 40340) | DRSC11616 | 1.32e6 | 1.23e6 | 1.32e6 | 1.43e6 |
| CG10598 (GeneID 32713) | DRSC19358 | 1.63e6 | 1.63e6 | 1.16e6 | 1.26e6 |
| CG12835 (retired record) (GeneID 35632) | DRSC06181 | 1.60e6 | 1.63e6 | 1.21e6 | 1.39e6 |
| CG3735 (GeneID 37803) | DRSC04411 | 1.25e6 | 1.39e6 | 1.11e6 | 1.14e6 |
